In the assay the target is Flag-APOE (UniProt P02649). Nature of the assay: affinity purification with mass spectrometry; LNCaP cells transfected with Flag-APOE vector; immunoprecipitation with anti-Flag or anti-AR antibodies, LC-MS/MS.

The chains behind the UniProt entries cited, without tags or fusion partners. Residues count along the entry.
UniProt P02649, residues 19-317: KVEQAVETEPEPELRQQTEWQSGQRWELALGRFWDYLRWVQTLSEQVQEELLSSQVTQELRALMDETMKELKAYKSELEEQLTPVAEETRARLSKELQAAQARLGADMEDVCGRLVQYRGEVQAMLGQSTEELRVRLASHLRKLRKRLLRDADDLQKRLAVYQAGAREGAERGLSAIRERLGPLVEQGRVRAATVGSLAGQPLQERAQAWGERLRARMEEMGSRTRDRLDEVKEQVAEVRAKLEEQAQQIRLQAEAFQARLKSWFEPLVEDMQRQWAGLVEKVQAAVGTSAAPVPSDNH
UniProt Q14258: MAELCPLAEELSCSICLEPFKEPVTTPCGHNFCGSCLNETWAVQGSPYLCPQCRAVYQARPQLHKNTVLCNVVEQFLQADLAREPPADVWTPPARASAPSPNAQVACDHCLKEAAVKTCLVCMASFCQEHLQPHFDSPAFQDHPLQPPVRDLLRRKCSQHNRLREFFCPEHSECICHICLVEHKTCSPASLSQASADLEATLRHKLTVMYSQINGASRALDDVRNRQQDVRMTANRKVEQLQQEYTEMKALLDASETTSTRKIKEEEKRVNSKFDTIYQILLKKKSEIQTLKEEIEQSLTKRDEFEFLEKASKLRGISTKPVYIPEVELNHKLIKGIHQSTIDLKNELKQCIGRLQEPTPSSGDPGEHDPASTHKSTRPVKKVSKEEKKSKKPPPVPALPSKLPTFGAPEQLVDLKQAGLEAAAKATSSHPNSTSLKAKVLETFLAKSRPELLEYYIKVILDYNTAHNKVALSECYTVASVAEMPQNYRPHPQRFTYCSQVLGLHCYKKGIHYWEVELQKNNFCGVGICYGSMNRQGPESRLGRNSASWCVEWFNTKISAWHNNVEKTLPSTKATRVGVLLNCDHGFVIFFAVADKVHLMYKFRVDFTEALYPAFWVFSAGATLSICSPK

No constants are given. Whether binding was seen depends on the method and setting. Binding seen in cells or lysates may run through a third protein. A yes stands for co-enrichment or nearness to the bait. Other partners may have been found.

Our source for the binding values is article PMC12068304.

As to “Tripartite motif 25 (from UniProt Q14258 1-630) (enzyme)”, the binding result was “binds”.
